The results in this text go back to the supplement of paper PMC10849652.

The chains behind the UniProt entries cited, without tags or fusion partners. Where a name states a change or a piece, a line headed by the entry shows the natural chain unless it says otherwise.
UniProt Q9UIF9: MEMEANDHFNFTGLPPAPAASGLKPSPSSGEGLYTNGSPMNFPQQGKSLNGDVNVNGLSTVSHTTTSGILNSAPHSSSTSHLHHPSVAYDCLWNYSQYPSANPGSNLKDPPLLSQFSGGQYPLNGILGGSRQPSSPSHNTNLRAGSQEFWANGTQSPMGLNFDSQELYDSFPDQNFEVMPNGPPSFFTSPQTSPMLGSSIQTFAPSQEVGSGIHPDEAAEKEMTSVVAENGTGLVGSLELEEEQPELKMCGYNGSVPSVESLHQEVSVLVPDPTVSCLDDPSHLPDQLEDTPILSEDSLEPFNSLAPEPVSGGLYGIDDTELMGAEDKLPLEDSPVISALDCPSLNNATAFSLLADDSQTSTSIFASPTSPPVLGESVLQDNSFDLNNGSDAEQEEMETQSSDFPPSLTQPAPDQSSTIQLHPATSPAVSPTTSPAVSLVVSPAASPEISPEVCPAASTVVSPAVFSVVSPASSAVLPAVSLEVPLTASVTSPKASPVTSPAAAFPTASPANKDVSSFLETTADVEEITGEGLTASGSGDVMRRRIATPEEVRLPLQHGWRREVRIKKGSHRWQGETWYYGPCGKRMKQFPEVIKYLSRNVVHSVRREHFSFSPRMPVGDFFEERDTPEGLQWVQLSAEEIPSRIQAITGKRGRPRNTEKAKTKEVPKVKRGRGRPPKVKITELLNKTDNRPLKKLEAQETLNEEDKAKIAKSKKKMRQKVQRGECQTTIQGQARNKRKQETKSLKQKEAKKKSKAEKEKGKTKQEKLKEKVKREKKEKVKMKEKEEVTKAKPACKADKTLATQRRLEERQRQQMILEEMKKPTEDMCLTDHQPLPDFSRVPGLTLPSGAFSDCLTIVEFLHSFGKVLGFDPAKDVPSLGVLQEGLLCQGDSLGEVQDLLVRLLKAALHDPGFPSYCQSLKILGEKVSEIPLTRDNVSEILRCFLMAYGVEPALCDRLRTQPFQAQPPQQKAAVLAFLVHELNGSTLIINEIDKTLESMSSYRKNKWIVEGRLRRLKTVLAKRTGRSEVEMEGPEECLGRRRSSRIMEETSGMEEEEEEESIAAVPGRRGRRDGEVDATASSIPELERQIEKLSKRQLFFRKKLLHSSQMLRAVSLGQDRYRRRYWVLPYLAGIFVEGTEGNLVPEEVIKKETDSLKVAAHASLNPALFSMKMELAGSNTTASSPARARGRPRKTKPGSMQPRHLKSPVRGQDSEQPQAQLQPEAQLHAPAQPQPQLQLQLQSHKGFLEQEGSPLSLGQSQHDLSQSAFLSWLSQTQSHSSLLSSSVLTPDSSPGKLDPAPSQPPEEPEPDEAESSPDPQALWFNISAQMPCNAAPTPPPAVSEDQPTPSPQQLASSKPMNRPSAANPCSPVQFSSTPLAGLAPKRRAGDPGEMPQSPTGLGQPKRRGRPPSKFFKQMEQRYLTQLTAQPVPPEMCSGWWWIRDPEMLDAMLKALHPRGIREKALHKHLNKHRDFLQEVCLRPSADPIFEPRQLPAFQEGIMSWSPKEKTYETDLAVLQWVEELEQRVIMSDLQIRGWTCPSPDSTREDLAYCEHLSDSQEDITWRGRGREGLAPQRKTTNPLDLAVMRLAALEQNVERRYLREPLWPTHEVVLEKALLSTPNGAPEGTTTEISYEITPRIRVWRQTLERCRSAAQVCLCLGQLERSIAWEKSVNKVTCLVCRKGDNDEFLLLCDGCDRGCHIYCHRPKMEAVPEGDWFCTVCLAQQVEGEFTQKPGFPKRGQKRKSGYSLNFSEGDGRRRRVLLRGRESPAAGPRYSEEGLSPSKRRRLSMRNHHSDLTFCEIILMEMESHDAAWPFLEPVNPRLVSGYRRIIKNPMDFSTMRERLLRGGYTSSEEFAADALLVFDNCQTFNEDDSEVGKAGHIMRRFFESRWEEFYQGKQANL
UniProt Q8TBE0: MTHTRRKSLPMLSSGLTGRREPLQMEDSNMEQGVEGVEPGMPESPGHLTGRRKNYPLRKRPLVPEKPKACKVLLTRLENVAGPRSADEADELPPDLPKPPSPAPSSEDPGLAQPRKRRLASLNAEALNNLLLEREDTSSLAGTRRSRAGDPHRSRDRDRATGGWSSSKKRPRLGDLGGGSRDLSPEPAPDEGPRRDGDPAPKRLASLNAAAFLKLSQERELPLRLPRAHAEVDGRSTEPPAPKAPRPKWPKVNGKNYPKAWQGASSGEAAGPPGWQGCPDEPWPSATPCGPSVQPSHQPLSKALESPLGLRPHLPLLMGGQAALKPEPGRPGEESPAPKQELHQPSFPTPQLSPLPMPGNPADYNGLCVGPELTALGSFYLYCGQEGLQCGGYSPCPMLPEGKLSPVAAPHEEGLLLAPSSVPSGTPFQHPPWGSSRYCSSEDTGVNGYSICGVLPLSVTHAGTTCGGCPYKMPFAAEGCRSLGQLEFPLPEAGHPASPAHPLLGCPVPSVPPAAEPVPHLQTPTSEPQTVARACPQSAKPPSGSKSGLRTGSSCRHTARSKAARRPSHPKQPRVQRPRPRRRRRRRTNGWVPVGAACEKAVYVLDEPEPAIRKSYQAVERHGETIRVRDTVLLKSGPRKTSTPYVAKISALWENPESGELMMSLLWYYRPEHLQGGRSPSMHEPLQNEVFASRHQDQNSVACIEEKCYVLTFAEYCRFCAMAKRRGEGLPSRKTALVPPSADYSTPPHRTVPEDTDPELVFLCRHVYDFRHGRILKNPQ
UniProt Q96G97: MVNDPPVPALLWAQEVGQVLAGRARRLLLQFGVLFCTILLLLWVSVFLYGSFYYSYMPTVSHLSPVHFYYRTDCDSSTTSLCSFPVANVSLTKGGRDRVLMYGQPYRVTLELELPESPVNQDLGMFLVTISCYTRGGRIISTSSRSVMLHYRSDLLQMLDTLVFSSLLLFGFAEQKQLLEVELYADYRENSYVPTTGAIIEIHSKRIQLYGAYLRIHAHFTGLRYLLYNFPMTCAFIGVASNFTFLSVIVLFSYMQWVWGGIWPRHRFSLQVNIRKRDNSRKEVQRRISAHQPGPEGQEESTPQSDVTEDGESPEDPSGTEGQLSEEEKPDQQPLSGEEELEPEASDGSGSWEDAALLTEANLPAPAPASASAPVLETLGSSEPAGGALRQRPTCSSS
UniProt Q9NWD9: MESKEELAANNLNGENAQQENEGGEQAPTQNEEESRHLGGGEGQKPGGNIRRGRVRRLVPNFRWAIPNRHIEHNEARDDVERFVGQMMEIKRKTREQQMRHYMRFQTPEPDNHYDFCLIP
UniProt Q9NSI6, whole entry, looked up: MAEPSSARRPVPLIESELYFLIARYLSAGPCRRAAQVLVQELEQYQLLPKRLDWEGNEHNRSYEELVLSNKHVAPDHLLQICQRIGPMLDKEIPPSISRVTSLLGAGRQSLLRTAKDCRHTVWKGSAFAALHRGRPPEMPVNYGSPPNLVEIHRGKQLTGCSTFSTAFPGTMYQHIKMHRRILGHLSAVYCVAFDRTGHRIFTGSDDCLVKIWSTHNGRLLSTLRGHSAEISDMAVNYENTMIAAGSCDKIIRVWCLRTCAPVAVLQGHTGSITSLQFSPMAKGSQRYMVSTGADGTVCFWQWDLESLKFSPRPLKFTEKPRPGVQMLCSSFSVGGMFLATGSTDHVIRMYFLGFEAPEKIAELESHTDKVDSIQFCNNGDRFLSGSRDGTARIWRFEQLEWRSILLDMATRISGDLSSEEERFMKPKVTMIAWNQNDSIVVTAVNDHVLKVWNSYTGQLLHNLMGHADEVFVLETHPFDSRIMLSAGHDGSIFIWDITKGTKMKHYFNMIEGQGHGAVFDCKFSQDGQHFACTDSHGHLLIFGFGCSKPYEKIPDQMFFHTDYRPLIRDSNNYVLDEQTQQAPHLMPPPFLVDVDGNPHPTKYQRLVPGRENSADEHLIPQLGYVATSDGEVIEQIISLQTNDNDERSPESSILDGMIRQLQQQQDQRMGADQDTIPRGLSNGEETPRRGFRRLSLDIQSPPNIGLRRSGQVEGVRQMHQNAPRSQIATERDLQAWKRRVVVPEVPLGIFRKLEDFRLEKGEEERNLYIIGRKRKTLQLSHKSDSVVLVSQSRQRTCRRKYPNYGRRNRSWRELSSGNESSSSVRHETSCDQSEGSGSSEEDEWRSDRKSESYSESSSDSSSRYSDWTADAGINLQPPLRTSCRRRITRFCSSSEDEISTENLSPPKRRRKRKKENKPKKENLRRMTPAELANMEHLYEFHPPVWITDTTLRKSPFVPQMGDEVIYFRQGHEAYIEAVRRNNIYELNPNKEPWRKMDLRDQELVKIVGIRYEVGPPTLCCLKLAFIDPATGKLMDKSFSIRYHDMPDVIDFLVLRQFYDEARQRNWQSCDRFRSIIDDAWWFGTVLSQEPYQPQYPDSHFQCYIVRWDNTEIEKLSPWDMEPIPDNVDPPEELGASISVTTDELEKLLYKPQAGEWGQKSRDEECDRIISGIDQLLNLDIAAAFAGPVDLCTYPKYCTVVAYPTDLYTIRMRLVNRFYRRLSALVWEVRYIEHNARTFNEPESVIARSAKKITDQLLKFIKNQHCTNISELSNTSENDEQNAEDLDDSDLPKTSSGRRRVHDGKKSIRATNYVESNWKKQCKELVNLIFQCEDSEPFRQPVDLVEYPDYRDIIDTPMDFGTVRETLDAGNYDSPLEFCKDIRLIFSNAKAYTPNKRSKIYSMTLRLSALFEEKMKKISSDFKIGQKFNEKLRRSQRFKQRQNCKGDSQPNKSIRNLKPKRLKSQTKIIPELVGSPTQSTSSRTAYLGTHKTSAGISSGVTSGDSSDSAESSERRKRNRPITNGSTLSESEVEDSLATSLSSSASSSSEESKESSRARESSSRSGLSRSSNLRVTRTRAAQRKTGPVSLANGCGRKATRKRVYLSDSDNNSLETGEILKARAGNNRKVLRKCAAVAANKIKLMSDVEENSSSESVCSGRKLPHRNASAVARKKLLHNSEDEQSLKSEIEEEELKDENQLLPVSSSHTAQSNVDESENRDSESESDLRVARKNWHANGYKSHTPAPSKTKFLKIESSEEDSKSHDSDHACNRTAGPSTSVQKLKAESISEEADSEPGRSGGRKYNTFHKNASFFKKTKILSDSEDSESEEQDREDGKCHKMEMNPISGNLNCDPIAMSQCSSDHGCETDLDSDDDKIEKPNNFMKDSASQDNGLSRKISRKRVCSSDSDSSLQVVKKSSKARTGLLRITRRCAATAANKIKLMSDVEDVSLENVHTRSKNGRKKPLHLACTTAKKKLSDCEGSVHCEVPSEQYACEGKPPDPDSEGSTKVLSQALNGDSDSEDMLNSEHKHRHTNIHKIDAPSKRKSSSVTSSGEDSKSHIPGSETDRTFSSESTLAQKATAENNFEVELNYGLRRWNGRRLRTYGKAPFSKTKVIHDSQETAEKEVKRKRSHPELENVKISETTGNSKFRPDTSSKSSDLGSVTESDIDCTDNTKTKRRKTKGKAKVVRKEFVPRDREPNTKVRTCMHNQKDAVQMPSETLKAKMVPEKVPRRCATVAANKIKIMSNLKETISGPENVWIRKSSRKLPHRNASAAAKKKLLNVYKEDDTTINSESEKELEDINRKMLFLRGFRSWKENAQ
UniProt Q96RK4: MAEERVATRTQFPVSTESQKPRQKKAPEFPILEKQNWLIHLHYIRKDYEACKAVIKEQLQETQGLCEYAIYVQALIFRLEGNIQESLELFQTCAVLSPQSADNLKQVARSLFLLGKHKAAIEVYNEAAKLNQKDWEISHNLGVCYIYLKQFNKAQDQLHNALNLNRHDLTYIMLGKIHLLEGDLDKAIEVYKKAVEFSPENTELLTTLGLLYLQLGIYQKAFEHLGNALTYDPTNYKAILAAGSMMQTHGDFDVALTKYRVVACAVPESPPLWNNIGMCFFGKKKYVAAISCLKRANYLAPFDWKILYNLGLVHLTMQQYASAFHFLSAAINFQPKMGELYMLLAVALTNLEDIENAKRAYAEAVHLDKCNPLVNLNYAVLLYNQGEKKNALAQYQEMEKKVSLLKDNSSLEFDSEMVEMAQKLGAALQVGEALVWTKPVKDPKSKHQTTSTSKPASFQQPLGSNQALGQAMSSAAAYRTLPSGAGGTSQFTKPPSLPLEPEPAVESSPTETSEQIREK
UniProt Q9UQB8: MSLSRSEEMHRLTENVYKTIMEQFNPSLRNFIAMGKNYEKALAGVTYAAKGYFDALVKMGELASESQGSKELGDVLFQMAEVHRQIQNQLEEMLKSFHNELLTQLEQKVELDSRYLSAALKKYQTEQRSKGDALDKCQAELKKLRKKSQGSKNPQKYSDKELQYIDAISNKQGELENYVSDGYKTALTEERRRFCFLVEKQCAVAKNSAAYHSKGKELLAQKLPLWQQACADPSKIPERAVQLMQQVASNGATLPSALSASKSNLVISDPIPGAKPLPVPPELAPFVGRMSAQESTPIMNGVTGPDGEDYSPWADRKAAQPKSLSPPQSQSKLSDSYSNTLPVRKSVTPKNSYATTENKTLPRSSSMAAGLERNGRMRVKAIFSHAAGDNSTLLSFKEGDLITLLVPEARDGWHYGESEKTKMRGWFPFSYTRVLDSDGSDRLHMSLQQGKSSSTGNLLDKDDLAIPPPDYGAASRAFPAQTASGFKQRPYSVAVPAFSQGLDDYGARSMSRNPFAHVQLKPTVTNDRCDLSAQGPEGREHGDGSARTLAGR

Some of the results follow.

Compound in one assay: CCn1c(C(=O)N(C2CC2)C2CC2)cc2c3c(ncn3C)c(Nc3cc(C)n(C)n3)nc21
Kind of assay: log2 fold change, soluble protein after heating vs DMSO (PISA); higher = thermal stabilisation; K562 lysate, 10 uM; active = over 0.2 and 3.5 SD of the protein, either way, in both replicates (recomputed). A digest of the protocol:
(§1)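 Soluble protein was defined as the supernatant remaining after 21,000xg for 90 min, following pooling of heated aliquots and adjustment to 0.5% NP-40 at 4°C. Before that, crude K562 extract at 1 mg/mL protein in PBS pH 7.4 with 1 mM MgCl2 was treated with 10 μM compound for 30 min and heated for 3 min across 48°C-58°C. Quantification used TMTpro 16plex LC-MS/MS with channel sums equalised, and values are log-two fold changes in thermal stability relative to solvent controls from duplicates.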
Consider BIN3 (UniProt Q9NQY0), for which the log2 fold change was inactive: 0.053.
BAZ2A (UniProt Q9UIF9): the log2 fold change was inactive: -0.021.
Take BAHD1 (UniProt Q8TBE0): the log2 fold change is inactive: 0.122.
For BDP1 (UniProt A6H8Y1), the log2 fold change is inactive: -0.012.
Consider BRD9 (UniProt Q9H8M2), for which the log2 fold change was inactive: 0.014.
The same measure, in the same setting: next, B4GAT1 (UniProt O43505): inactive: -0.129.
Regarding BSCL2 isoform 4 (UniProt Q96G97), the log2 fold change is inactive: 0.021.
BOD1 (UniProt Q96IK1): the log2 fold change was inactive: -0.04.
With BEGAIN, A0A1B0GVM0, the log2 fold change was inactive: 0.052.
For BEX4 (UniProt Q9NWD9), the log2 fold change is inactive: 0.124.
For BHLHE40 (UniProt O14503), the log2 fold change was inactive: 0.075.
Turning to BMP1 (UniProt P13497), the log2 fold change was inactive: -0.078.
Consider BICRAL (UniProt Q6AI39), for which the log2 fold change was inactive: -0.108.
For the target BICRA (UniProt Q9NZM4), the log2 fold change is inactive: -0.233.
BPTF (UniProt F5GXF5): the log2 fold change was inactive: -0.02.
As to BRWD1 (UniProt Q9NSI6), the log2 fold change was inactive: 0.074.
As for BCL2 (UniProt P10415), the log2 fold change was inactive: -0.001.

Compound in another assay: CCn1cc(-c2ccnc3[nH]c(-c4cccc(CN(C)C)c4)cc23)c(-c2ccc(NC(=O)N(C)C)cc2)n1
The assay is described as above. A digest of the protocol: as §1
On to BIN3 (UniProt Q9NQY0), for which the log2 fold change is inactive: 0.201.
Turning to BAZ2A (UniProt Q9UIF9), the log2 fold change is inactive: -0.18.
Take BAHD1 (UniProt Q8TBE0): the log2 fold change was inactive: -0.007.
Regarding BRD9 (UniProt Q9H8M2), the log2 fold change is inactive: 0.228.
For BTBD2 (UniProt Q9BX70), the log2 fold change was inactive: 0.082.
Consider BPIFA2 (UniProt Q96DR5), for which the log2 fold change is inactive: -0.065.
As for BSCL2 isoform 4 (UniProt Q96G97), the log2 fold change is inactive: -0.07.
Same read-out and setting: to BOD1 (UniProt Q96IK1) belongs inactive: 0.181.
For BPIFB1 (UniProt Q8TDL5), the log2 fold change is inactive: 0.843.
Take B4GALT4 (UniProt O60513): the log2 fold change was inactive: 0.009.
As to BMT2 (UniProt Q1RMZ1), the log2 fold change is inactive: 0.004.
Same read-out and setting: to BICRA (UniProt Q9NZM4) belongs inactive: -0.133; to BBS4 isoform 2 (UniProt Q96RK4), inactive: -0.131.
Still for that read-out and setting: next, BAIAP2 isoform 6 (UniProt Q9UQB8): inactive: 0.132.

Compound in another assay: CN1CCC(CNc2ccc3ncc(-c4cccc(OC(F)(F)F)c4)n3n2)CC1
The assay is described as above. The method, boiled down: as §1
In the case of BIN3 (UniProt Q9NQY0), the log2 fold change was inactive: 0.051.
For BAZ2A (UniProt Q9UIF9), the log2 fold change was inactive: -0.025.
Take BAHD1 (UniProt Q8TBE0): the log2 fold change was inactive: -0.076.
With BRD9 (UniProt Q9H8M2), the log2 fold change was inactive: 0.046.
On to BTBD2 (UniProt Q9BX70), for which the log2 fold change is inactive: -0.161.
Take BPIFA2 (UniProt Q96DR5): the log2 fold change is inactive: -0.33.
Take BSCL2 isoform 4 (UniProt Q96G97): the log2 fold change is inactive: 0.061.
Turning to BOD1 (UniProt Q96IK1), the log2 fold change is inactive: -0.137.
In the case of BPIFB1 (UniProt Q8TDL5), the log2 fold change was inactive: -1.06.
Still for that read-out and setting: to B4GALT4 (UniProt O60513) belongs inactive: -0.071; to BMT2 (UniProt Q1RMZ1), inactive: 0.096; to BICRA (UniProt Q9NZM4), inactive: -0.048.
Turning to BBS4 isoform 2 (UniProt Q96RK4), the log2 fold change is inactive: 0.059.
Regarding BAIAP2 isoform 6 (UniProt Q9UQB8), the log2 fold change was inactive: 0.125.

Compound in another assay: CN1CCN(CCOc2cc(OC3CCOCC3)c3c(Nc4c(Cl)ccc5c4OCO5)ncnc3c2)CC1 [saracatinib]
Described as above. A digest of the protocol:
as §1
For the target BIN3 (UniProt Q9NQY0), the log2 fold change was inactive: 0.082.
BAHD1 (UniProt Q8TBE0): the log2 fold change is inactive: 0.088.
On the same count and under the same terms, next, B4GAT1 (UniProt O43505): inactive: 0.011; BOD1 (UniProt Q96IK1): inactive: -0.401.
With BEX4 (UniProt Q9NWD9), the log2 fold change is inactive: 0.079.
The same measure, in the same setting: next, BBX (UniProt Q8WY36): inactive: -0.065; B4GALT4 (UniProt O60513): inactive: 0.116; BICRA (UniProt Q9NZM4): inactive: 0.02.
On the same count and under the same terms, next, BTBD10 isoform 2 (UniProt Q9BSF8): inactive: -0.098; BBS4 isoform 2 (UniProt Q96RK4): inactive: 0.139; BRWD1 (UniProt Q9NSI6): inactive: 0.044.

Compound in another assay: CN1CCN(c2nc(C3=C(c4c[nH]c5ccccc45)C(=O)NC3=O)c3ccccc3n2)CC1 [sotrastaurin]
The assay is described as above. A digest of the protocol: as §1
In the case of BIN3 (UniProt Q9NQY0), the log2 fold change was inactive: 0.098.
For BAZ2A (UniProt Q9UIF9), the log2 fold change was inactive: -0.016.
BAHD1 (UniProt Q8TBE0): the log2 fold change was inactive: 0.04.
With BDP1 (UniProt A6H8Y1), the log2 fold change was inactive: 0.008.
For B4GALNT4 (UniProt Q76KP1), the log2 fold change was inactive: 0.013.
For BNIP3L (UniProt O60238), the log2 fold change is inactive: 0.051.
For the target BTBD2 (UniProt Q9BX70), the log2 fold change was inactive: 0.066.
In the case of B4GAT1 (UniProt O43505), the log2 fold change was inactive: 0.126.
BSCL2 isoform 4 (UniProt Q96G97): the log2 fold change is inactive: 0.133.
Regarding BOD1 (UniProt Q96IK1), the log2 fold change was inactive: -0.008.
On to BEGAIN, A0A1B0GVM0, for which the log2 fold change was inactive: 0.024.
Take BEX4 (UniProt Q9NWD9): the log2 fold change was inactive: -0.064.
Same read-out and setting: to BTG1 (UniProt P62324) belongs inactive: 0.123.
Regarding BBX (UniProt Q8WY36), the log2 fold change is inactive: 0.095.
Regarding BHLHE40 (UniProt O14503), the log2 fold change was inactive: 0.101.
As for BICRA (UniProt Q9NZM4), the log2 fold change is inactive: 0.
Still for that read-out and setting: next, BTBD10 isoform 2 (UniProt Q9BSF8): inactive: -0.025; BAIAP2 isoform 6 (UniProt Q9UQB8): inactive: -0.007; BRWD1 (UniProt Q9NSI6): inactive: 0.075.
